Experimental data taken from EP0425212B1 (dated 1991).

What was measured:
[1] = general procedure: Boc solid-phase peptide synthesis; BHA; EDC/HOBt (solution phase steps); settings: whole synthesis, scale 1 mmol
[2] = general procedure: Boc solid-phase peptide synthesis; 4-methylbenzhydrylamine resin; EDC/HOBt (solution phase steps); settings: whole synthesis, scale 1.0 mmol
[3] = general procedure: Boc solid-phase peptide synthesis; benzhydrylamine (BHA) / 4-methylbenzhydrylamine (MBHA) resin; hydroxymethyl resin; SASRIN for homodetic peptides; EDC/HOBt (solution phase steps); settings: cyclisation step
[4] = general procedure: Boc solid-phase peptide synthesis; MeBHA; EDC/HOBt (solution phase steps); settings: whole synthesis

PEPTIDE1{G.[MeR].G.D.S.E.[am]}$PEPTIDE1,PEPTIDE1,1:R1-6:R3$$$V2.0
crude mass [1]: 680 mg | crude yield [1]: 100%

PEPTIDE1{[Mba].R.G.D.C.[am]}$PEPTIDE1,PEPTIDE1,1:R3-5:R3$$$V2.0
crude mass [2]: 320 mg

PEPTIDE1{[MeR].G.D.F.R.G.D.F}$PEPTIDE1,PEPTIDE1,8:R2-1:R1$$$V2.0
cyclisation yield [3]: 95%

PEPTIDE1{[ac].C.R.G.D.S.[MeR].G.D.S.C.[am]}$PEPTIDE1,PEPTIDE1,2:R3-11:R3$$$V2.0
crude mass ([4]; scale 1.0 mmol): 409 mg

PEPTIDE1{[ac].C.[MeR].G.D.S.R.G.D.S.C.[am]}$PEPTIDE1,PEPTIDE1,2:R3-11:R3$$$V2.0
isolated mass ([4]; scale 1.0 mmol): 800 mg

PEPTIDE1{[ac].C.[MeR].G.D.[PcsRR].[am]}$PEPTIDE1,PEPTIDE1,2:R3-6:R3$$$V2.0
isolated mass ([4]; scale 0.5 mmol): 92 mg

PEPTIDE1{[ac].C.[MeR].G.D.[PcsRS].[am]}$PEPTIDE1,PEPTIDE1,2:R3-6:R3$$$V2.0
isolated mass ([4]; scale 0.5 mmol): 80 mg

Some peptides are written in HELM: one residue between dots, names in brackets for other building blocks, links after the first $.
